# In the supplement of paper PMC8007513:
# Some of the results follow. Single values are uncertain, as repeats are few or missing.
# Test system: Saccharomyces cerevisiae BY4743
# Test: growth (OD600) relative to untreated control; higher = less growth inhibition
# Settings: compound concentration: 133 uM; 20 h
# Protocol: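 NMCCC compounds (133 uM, no IPBC) tested alone against Saccharomyces cerevisiae BY4743 in YPD, 96-well plates, starting OD600 ~0.1. Growth was read as OD600 at 20 h and expressed as % of the untreated control. Single pass.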
row,Structure (SMILES),growth
1,COC(=O)c1c(C)[nH]c(C(=O)N2CCOC(C)C2)c1C (configuration not stated),102%
2,Cc1ccc(CNS(=O)(=O)c2ccc3c(c2)C(C)(C)C(=O)N3)cc1,112%
3,COc1ccccc1-c1noc(CSc2n[nH]c(C(C)C)n2)n1,100%
4,C=C1c2ccccc2C(=O)N1CC(=O)Nc1ccc(Cl)c(Cl)c1,85.7%
5,COc1cc(Br)c(CCNC(=O)c2nnc(O)c3ccccc23)cc1OC,109%
6,Cc1ccccc1NS(=O)(=O)c1ccc(C(=O)NN2CCCCC2)cc1,112%
7,COc1cccc(N2CC(C(=O)NCc3ccccc3S(=O)(=O)N(C)C)CC2=O)c1 (configuration not stated),106%
8,CCn1c(SCC(=O)NCCc2cccs2)nc2cc(S(N)(=O)=O)ccc21,103%
9,CC(=O)Nc1ccc(C(=O)CSc2nc3cc(C)ccc3[nH]2)c(F)c1,110%
10,CC(C)CC[N]1C(=CC(=C1C)C(=O)CN2\N=C(/C=C\C2=O)C3=CC=CC=C3)C,101%
11,Cc1ccccc1-c1nnc(SCC(=O)NCC2CCCO2)o1 (configuration not stated),100%
12,COCCn1c(Cc2ccccc2)nnc1SCC(=O)N1CCCC1=O,85.3%
13,CCN(CC)S(=O)(=O)c1cc(C(=O)NCc2cn3cc(Cl)ccc3n2)ccc1Cl,104%
14,CCN(CC(=O)Nc1ccc(C(=O)Nc2ccc(OC)cc2)cc1)Cc1ccc(Cl)s1,86%
15,CCCNC(=O)CN1\C(=C/C(=O)[N]2N=C(N=C12)C3=CC=CC=C3C)C,101%
16,Cc1nn(CC(C)C)c2sc(C(=O)OCC(=O)NC(=O)NCC(C)C)cc12,88.5%
17,CCNC(=O)NC(=O)CSc1nnc(-c2cccc(S(=O)(=O)N(CC)CC)c2)o1,102%
18,CC(C)c1nccn1-c1ccc(NC(=O)c2ccc(N(C)C)cc2)cc1,108%
19,CCOc1ccccc1NC(=O)C(Sc1nc(N)cc(O)n1)c1ccccc1 (configuration not stated),101%
20,COC1=CC=C(OC)C(=C1)C(=O)OCC(=O)N\2CC\C(=N2)C3=CC=CC=C3,96.5%
21,CC(C)CNC(=O)N1[C@H](c2cccs2)[C@@H](C)C(=O)[C@@H](C)[C@@H]1c1cccs1,101%
22,Cc1noc(C)c1CCC(=O)N1CCN(CC2CCCO2)CC1 (configuration not stated),98.3%

# Taken from above.
# For growth, `Cc1nn(CC(C)C)c2sc(C(=O)OCC(=O)NC(=O)NCC(C)C)cc12` is entered as 88.5%
# For growth, `CCOc1ccccc1NC(=O)C(Sc1nc(N)cc(O)n1)c1ccccc1` (configuration not stated) is entered as 101%
